Results: PMC12040169 (PLOS Biology, 2025)
The list shows a part of the results.

Tested on: T1, CTL2-GFP (C. trachomatis L2/434/Bu, GFP-expressing)
T1 construct: L2/434/Bu, GFP-expressing
Set-up: species or system HeLa; Intracellular C. trachomatis growth in HeLa cells, bulk GFP fluorescence relative to DMSO
Details: bulk GFP, single well; 28.5 h, 10 µM; inhibitor

| SMILES | % of control remaining |
| --- | --- |
| CN(C)CCN(C)C(=O)C1CCN(c2cncc(-c3ccc(O)cc3)n2)CC1 [CBK126928T] | 133.992% |
| Cc1nc2c3ccccc3nc(SCC(=O)Nc3ccccc3)n2n1 [CBK295205] | 119.058% |
| CC(C)(C)c1cc(CCCOC(=O)CNc2ccccc2)cc(C(C)(C)C)c1O [CBK261939] | 103.702% |
| CCc1nnc(SCC(=O)Nc2cccc(OC)c2)[nH]1 [CBK270226] | 106.795% |
| CCCCOc1ccc2c(C(F)(F)F)cc(=O)oc2c1 [CBK097821] | 99.1995% |
| COCC(=O)N1CCN2C(=O)N(Cc3ccccc3)C(=O)[C@H]2C1 [CBK289641] | 142.709% |
| O=C(O)c1c2c(nc3ccccc13)C(=Cc1ccc3c(c1)OCCO3)CC2 [CBK297479] | 142.096% |
| Cc1cc(C(=O)N2CCc3c(sc4ncnc(N)c34)C2)on1 [CBK306067] | 94.6332% |
| CCOc1ccccc1CN1CC2CCCN2C[C@@H]1C (stereo partly shown) [CBK285435] | 109.536% |
| Cn1cc(-c2nc(C3COCCN3Cc3c(F)cccc3Cl)no2)cn1 (stereo not shown) [CBK305441] | 122.328% |
| CC1CCc2onc(C(=O)Nc3ccncc3)c2C1 (stereo not shown) [CBK288080] | 85.3736% |
| Cc1cc(Cn2nnc(-c3ccc(Br)cc3)n2)cc(C)c1O [CBK291129] | 99.3998% |
| O=C(c1ccncc1)N1CCc2cc(S(=O)(=O)N3CCOCC3)ccc21 [CBK287800] | 109.123% |
| CCn1c(C)nc2cc(NC(=O)Cn3cccc(C(=O)NC4CCCCC4)c3=O)ccc21 [CBK286042] | 122.653% |
| CCN1CCc2cc(-c3cncn3CC(=O)NC(C)(C)C)ccc21 [CBK281698] | 113.53% |
| CC(C)(C)c1ccc(OCCCC(=O)Nc2ccc(N3CCOCC3)cc2)cc1 [CBK264783] | 116.805% |
| COc1ccc(C(=O)C2=C(O)C(=O)N(CCN3CCOCC3)C2c2ccc(O)c(OC)c2)c(C)c1 (stereo not shown) [CBK264858] | 100% |
| O=c1[nH]cc(-c2ccc(F)cc2)cc1CNCc1ccc(F)cc1 [CBK284695] | 137.458% |
| CC(O)CNCCNCc1cccs1 (stereo not shown) [CBK278279C] | 115.108% |
| C=CCn1c(-c2sc(NC(=O)Cn3c(=O)n(CCC)c4ccccc43)nc2C)n[nH]c1=S [CBK297890] | 129.862% |
| CCCc1[nH]nc(O)c1C(=O)c1c(Cl)cccc1Cl [CBK093553] | 122.462% |
| CC1(C)CN(c2ccc(S(N)(=O)=O)cc2)C1=O [CBK020416] | 119.964% |
| CC(C)(C)N=C1c2nn(Cc3ccccc3)nc2C(=NC(C)(C)C)c2nn(Cc3ccccc3)nc21 [CBK261070] | 110.075% |
| O=C(Cn1c(=O)oc2ccccc21)Nc1cccc(C(=O)O)c1 [CBK267641] | 112.984% |
| CC1CCc2c(sc3ncn(C4CCNCC4)c(=O)c23)C1 (stereo not shown) [CBK282349] | 104.513% |
| CCc1nc(CN2CCN(C(=O)Nc3ccccc3C)CC2)cs1 [CBK305817] | 93.9736% |
| Cc1cccc(NC(=O)CCC(=O)N/N=C/c2cccnc2)c1 [CBK262023] | 102.833% |

Molecules from the list above that have a COOH group:

| SMILES | % of control remaining |
| --- | --- |
| O=C(O)c1c2c(nc3ccccc13)C(=Cc1ccc3c(c1)OCCO3)CC2 [CBK297479] | 142.096% |
| O=C(Cn1c(=O)oc2ccccc21)Nc1cccc(C(=O)O)c1 [CBK267641] | 112.984% |

Remaining list, next part.

| SMILES | % of control remaining |
| --- | --- |
| CC(=O)Nc1ccc(NC(=O)[C@H]2CCCC[C@H]2C(=O)O)cc1 [CBK287073] | 118.183% |
| CCOC(=O)C(NS(=O)(=O)c1ccc(NC(C)=O)c(Cl)c1)C(=O)OCC [CBK043996] | 107.379% |
| Cc1ccc(S(=O)(=O)NC(C)(C)C(=O)O)cc1 [CBK263840] | 123.59% |
| O=C(O)CCCn1cc(NC(=O)c2c(F)cccc2F)cn1 [CBK269941] | 145.032% |
| COc1ccc(-c2cc(C(=O)O)nn2C2CCS(=O)(=O)C2)cc1 (stereo not shown) [CBK286990] | 144.839% |
| NC(=O)c1csc(-c2ccc(F)cc2F)n1 [CBK067749] | 111.401% |
| COc1cc2c(cc1OC)CN(Cc1ccccc1[N+](=O)[O-])CC2 [CBK261535] | 106.663% |
| Cc1ccc2nc(C)cc(NC(=O)c3ccncc3)c2c1 [CBK287801] | 117.829% |
| CC1CCCCN1C(=O)CN1C(=O)N2CCCN=C2c2ccccc21 (stereo not shown) [CBK284393] | 101.287% |
| COc1ccc(OC)c(NC(=O)CSc2nnc(-c3ccc(F)cc3)n2C)c1 [CBK266073] | 157.72% |
| O=C(CNS(=O)(=O)c1cc(Br)c(Cl)s1)N1CCOCC1 [CBK034474] | 103.997% |
| COc1ccc(C(=O)CC(SCC(NC(C)=O)C(=O)O)c2ccc(Cl)cc2)cc1OC (stereo not shown) [CBK296109] | 119.443% |
| CCOc1cc(N2CCOCC2)c(OCC)cc1NC(=O)CSc1ccccc1C(=O)O [CBK296107] | 125.526% |
| Cc1ccc(NC(=O)CCCn2cc([N+](=O)[O-])cn2)cc1Cl [CBK268485] | 113.982% |
| NC(=O)C1CCN(C2=NC(=O)/C(=C/c3cn(-c4ccccc4)nc3-c3cccs3)S2)CC1 [CBK265179] | 100% |
| OC1(Cn2cnc3ccccc32)CCN(Cc2ccccc2F)CC1 [CBK284662] | 150.354% |
| O=S(=O)(Nc1ccc(C(O)(C(F)(F)F)C(F)(F)F)cc1)c1ccc(N2CCOCC2)nc1 [CBK062100] | 85.8377% |
| Cc1cc(C)c2c(O)nc(SCC(=O)c3ccc(F)c(C)c3)nc2n1 [CBK266087] | 194.006% |
| CCNC(=O)c1cc2c(=O)n3cc(C)ccc3nc2n(Cc2ccco2)c1=N [CBK265312] | 100% |
| COC(=O)c1csc(-c2ccc(Cl)cc2Cl)n1 [CBK067776] | 105.328% |
| O=C(Nc1cccc2cc[nH]c12)c1cc(F)cc(Cl)c1 [CBK160075] | 87.5988% |
| O=C(COc1ccc2ccccc2c1)Nc1ccc(S(=O)(=O)N2CCc3ccccc32)cc1 [CBK263802] | 100% |
| Clc1ccc(OCc2nnn[nH]2)c(C2CCCCC2)c1 [CBK270035] | 111.192% |
| O=C(CC1SC(=O)NC1=O)Nc1ccccc1O (stereo not shown) [CBK057932] | 100% |
| CC(C)NC(=O)C1CN(Cc2ccccc2)CC12CCc1ccccc1C2NC(=O)CN (stereo not shown) [CBK283093] | 178.202% |
| O=C(C1CCC1)N1CCCC1c1nnc(-c2ccsc2)o1 (stereo not shown) [CBK283365] | 145.017% |
| Cc1nc2c(c(=O)[nH]1)CN(Cc1cccc(Oc3ccccc3)c1)CC2 [CBK283951] | 132.734% |

| SMILES | % of control remaining |
| --- | --- |
| COCC(C)NC(=O)c1cc2c(C)cc(C)cc2[nH]1 (stereo not shown) [CBK057591] | 149.942% |
| NC(=O)c1c(NC(=O)c2ccc(COc3ccc4ccccc4c3)o2)sc2c1CCCC2 [CBK265871] | 100% |
| CC1CCCN(Cc2c(C3CCNCC3)[nH]c3ncccc23)C1C (stereo not shown) [CBK285084] | 147.451% |
| CN1CCN(CCCNC(=O)c2ccc(-c3ccc(C(=O)N(C)C)cc3)nc2)CC1 [CBK158343] | 98.8704% |
| Cc1nc(CNCc2c(C)nn(C)c2N2CCOCC2)cs1 [CBK305753] | 99.3259% |
| CCCc1[nH]n(CC(=O)OCC)c(=O)c1Cc1c(Cl)cccc1Cl [CBK104764] | 101.524% |
| O=C(Nc1cccnc1)c1cc(-c2ccc(Cl)cc2)on1 [CBK116555] | 103.324% |
| CC(C)N(CC(=O)N(c1ccccc1)c1ccccc1)C(C)C [CBK013303C] | 114.337% |
| Nc1ncc(-c2cccc(O)c2)nc1NCc1ccco1 [CBK063675] | 128.459% |
| COc1ccc(CN2C(=O)CO[C@H]3CN(c4nccc(C)n4)C[C@H]32)cc1 [CBK289056] | 118.875% |
| c1cnc(Oc2ccc(CN3CCCC(c4cn[nH]c4)C3)cc2)cn1 (stereo not shown) [CBK306416] | 89.6057% |
| Cc1ccc2nc(NCc3ccco3)c(/C=N/Cc3ccco3)c(=O)n2c1 [CBK220353] | 118.527% |
| O=C(Nc1cc2ccccc2c(Br)n1)Nc1ccc(F)cc1C(F)(F)F [CBK063278] | 103.342% |
| CCOC(=O)C1=C(C)NC(=S)NC1c1ccc(O)c(OCC)c1[N+](=O)[O-] (stereo not shown) [CBK265624] | 132.117% |
| CCc1nccn1CCC(=O)Nc1ccc2c(c1)CCN2C(C)=O [CBK281446] | 124.55% |
| C=CCN1C(=O)/C(=C2/Sc3ccc(OC)cc3N2C)S/C1=N\c1cc(C#N)ccc1NCC [CBK262431] | 100% |
| CS(=O)(=O)Nc1ncc(Br)cc1C(=O)Nc1ccc(C(F)(F)F)cc1 [CBK076485] | 100.945% |
| CCC1CCCCN1C(=O)CCc1c(C)nc(-c2ccccc2)[nH]c1=O (stereo not shown) [CBK305608] | 86.338% |
| COc1ncc(-c2cccc(N(C)CCN(C)C)n2)c(OC)n1 [CBK037599] | 86.1728% |
| CSCCCNC(=O)N1CCN(C2CCN(C)CC2)CC1 [CBK155882] | 81.55% |
| CSCCN1CCN(c2nccnc2OCc2cccnc2)CC1 [CBK083146] | 127.051% |
| N#Cc1cnn2c(C(F)(F)F)cc(C(F)(F)F)nc12 [CBK014064] | 95.4792% |
| CCCS(=O)(=O)NC1CC(C)(C)Cc2c1cnn2-c1ccc(C)cc1 (stereo not shown) [CBK307531] | 138.026% |
| COc1ccc(CN(C(=O)CCc2c(C)[nH]c(=O)c(C#N)c2C)C2CC2)cc1 [CBK295667] | 119.365% |
| CN(C(=O)CCc1nc2sc3c(c2c(=O)[nH]1)CCCC3)C1CCCCC1 [CBK306075] | 118.538% |

Individual results from the results shown.
% of control remaining, CCc1nnc(SCC(=O)Nc2cccc(OC)c2)[nH]1 [CBK270226] is entered as 106.795%
% of control remaining, CCNC(=O)c1cc2c(=O)n3cc(C)ccc3nc2n(Cc2ccco2)c1=N [CBK265312] is entered as 100%
% of control remaining, COCC(=O)N1CCN2C(=O)N(Cc3ccccc3)C(=O)[C@H]2C1 [CBK289641] is entered as 142.709%
